Results as given in US20170248601A1 (MIT, published 2017).
Numbering of substitutions follows the chain as printed.

What was measured:
[1] = target: T1, His-tagged TorsinAEQ (residues 51-332) deltaThr305 (human, UniProt O14656 51-332); assay: Ni-affinity co-purification, co-expressed in bacteria without VHH-BS2, SDS-PAGE
T1 construct: Single-residue deletion, with '-' meaning deleted; not shown: N-terminal 3C-cleavable 10xHis-7xArg tag
T1 sequence: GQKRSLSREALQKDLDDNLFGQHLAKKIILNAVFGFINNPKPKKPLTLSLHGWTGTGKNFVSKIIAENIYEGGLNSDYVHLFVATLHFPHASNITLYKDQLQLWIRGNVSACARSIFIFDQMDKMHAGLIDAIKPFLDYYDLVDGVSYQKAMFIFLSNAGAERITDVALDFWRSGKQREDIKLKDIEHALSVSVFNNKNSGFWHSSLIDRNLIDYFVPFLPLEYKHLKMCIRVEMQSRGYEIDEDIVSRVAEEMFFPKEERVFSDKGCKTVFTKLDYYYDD
Procedure: (§1) For the non-structural analysis of TorsinA and LULL1 variants, the pETDuet-1-based expression plasmid was transformed into LOBSTR(DE3) RIL cells without co-expressing nanobody VHH-BS2. Ni²⁺-affinity purification was performed as described above and bound protein was eluted. Aliquots from the Ni²⁺-eluate and the total lysate were collected and analyzed by SDS-PAGE gel electrophoresis.

[2] = target: T2, His-tagged TorsinAEQ (residues 51-332) deltaMet304 (human, UniProt O14656 51-332); assay: as above
T2 construct: Single-residue deletion, with '-' meaning deleted; not shown: N-terminal 3C-cleavable 10xHis-7xArg tag
T2 sequence: T1 sequence with M254T
Procedure: as §1

[3] = target: T3, ATP-trapped E171Q mutant of human TorsinA (residues 51-332) (human, UniProt O14656 51-332); assay: co-expression and co-purification
T3 construct: also called TorsinAEQ
T3 sequence: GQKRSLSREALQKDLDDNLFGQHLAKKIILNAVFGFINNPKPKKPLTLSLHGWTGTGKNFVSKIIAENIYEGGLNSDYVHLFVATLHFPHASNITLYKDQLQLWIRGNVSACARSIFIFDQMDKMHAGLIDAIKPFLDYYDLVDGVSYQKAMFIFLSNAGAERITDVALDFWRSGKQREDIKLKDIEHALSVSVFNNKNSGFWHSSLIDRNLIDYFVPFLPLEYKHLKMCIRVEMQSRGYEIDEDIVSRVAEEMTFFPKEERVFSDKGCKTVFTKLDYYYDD

- binding result [1]: no binding
- binding result [2]: no binding
- binding result [3]: binds
B1: luminal activation domain of human LULL1 (residues 233-470) (other)
chain: SSVNSYYSSPAQQVPKNPALEAFLAQFSQLEDKFPGQSSFLWQRGRKFLQKHLNASNPTEPATIIFTAAREGRETLKCLSHHVADAYTSSQKVSPIQIDGAGRTWQDSDTVKLLVDLELSYGFENGQKAAVVHHFESFPAGSTLIFYKYCDHENAAFKDVALVLTVLLEEETLEASVGPRETEEKVRDLLWAKFTNSDTPTSFNHMDSDKLSGLWSRISHLVLPVQPVSSIEEQGCLF
notes: Untagged and co-expressed with TorsinA from pETDuet-1; also called LULL1233-470
